Results from publication PMC11480477, “STIC2 selectively binds ribosome-nascent chain complexes in the cotranslational sorting of Arabidopsis thylakoid proteins” (The EMBO Journal, 2024).
Results are given in words; binding and its absence hold for the method and conditions named. Tags and fused reporters may be left off the sequences shown.

What was measured:
[1] = target: T1, Alb3CΔIII-His (aa 350–462 lacking aa 386–403) (UniProt Q8LBP4); test: condition: 1.5 mM His-STIC2 titrated into 0.15 mM Alb3CΔIII-His; ITC; His-STIC2 titrated (1.5 mM into 0.15 mM Alb3C-His or Alb3CΔIII-His; 1 mM into 0.1 mM Alb4C-His or Alb4CΔIII-His); 20 mM HEPES, 150 mM NaCl, pH 8.0, 25 °C; one-site binding model; two to five independent experiments; both purified
T1 sequence: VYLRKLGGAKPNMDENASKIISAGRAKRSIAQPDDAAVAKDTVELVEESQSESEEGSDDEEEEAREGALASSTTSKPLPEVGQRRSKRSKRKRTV

[2] = target: T2, Alb4CΔIII-His (aa 334–499 lacking aa 397–414) (UniProt Q9FYL3); test: condition: 1 mM His-STIC2 titrated into 0.1 mM Alb4CΔIII-His; ITC; His-STIC2 titrated (1.5 mM into 0.15 mM Alb3C-His or Alb3CΔIII-His; 1 mM into 0.1 mM Alb4C-His or Alb4CΔIII-His); 20 mM HEPES, 150 mM NaCl, pH 8.0, 25 °C; one-site binding model; two to five independent experiments; both purified
T2 sequence: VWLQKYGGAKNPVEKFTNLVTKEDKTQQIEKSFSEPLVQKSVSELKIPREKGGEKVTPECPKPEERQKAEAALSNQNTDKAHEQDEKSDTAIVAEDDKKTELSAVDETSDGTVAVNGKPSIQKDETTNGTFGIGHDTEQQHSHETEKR

B1: His-STIC2 (mature STIC2, aa 49–182) (natural protein, A. thaliana, UniProt O82230 49-182, looked up)
chain: VNGLFGGGNKDNNSEDGQSKAGIFGNMQNMYETVKKAQMVVQVEAVRVQKELAAAEFDGYCAGELVKVTLSGNQQPIRTDITEAAMELGSEKLSQLVTEAYKDAHAKSVVAMKERMSDLAQSLGMPPGLSEGMK
notes: STIC2 of A. thaliana, mature protein aa 49–182 (transit peptide predicted with TargetP), in pET-Duet1; The N-terminal place of the tag is read from the printed name His-STIC2; also called recombinant mature His-STIC2; suppressor of tic40 protein 2; source: E. coli Rosetta2 (DE3) or BL21 (DE3), purified (HisTrap HP, native conditions); not shown: His tag, N-terminal, kept
In the case of B1, the binding [1] is reported as “no binding” and the binding [2] is reported as “no binding”.
